Results are given in words; binding and its absence hold for the method and conditions named. Binding seen in cells or lysates may run through a third protein. Some entries that bind do so weakly or less than the wild type. For some assays here: Where a sequence is shown, tags or fusion partners need not be part of it.
T1: Flag-FSP1 (UniProt Q8BUE4)
T1 sequence: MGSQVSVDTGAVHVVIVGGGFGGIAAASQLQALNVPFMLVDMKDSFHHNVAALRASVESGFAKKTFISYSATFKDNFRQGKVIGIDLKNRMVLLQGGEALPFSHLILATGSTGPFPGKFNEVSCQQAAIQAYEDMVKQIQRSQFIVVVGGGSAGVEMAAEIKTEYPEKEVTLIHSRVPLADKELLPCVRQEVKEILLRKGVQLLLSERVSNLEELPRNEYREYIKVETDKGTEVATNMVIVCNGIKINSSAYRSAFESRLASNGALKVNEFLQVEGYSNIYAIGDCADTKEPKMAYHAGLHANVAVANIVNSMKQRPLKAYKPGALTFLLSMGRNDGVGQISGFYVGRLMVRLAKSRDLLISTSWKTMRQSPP

T2: FSP1 in tubular epithelial cells (UniProt Q8BUE4)
T2 sequence: T1 sequence

B1: HA-NDUFA1 (protein, UniProt O35683 1-70)
chain: MWFEILPGLAIMGVCLVIPGVSTAYIHKFTNGGKEKRVARVQYQWYLMERDRRISGVNRYYVSKGLENID
B2: NDUFA1 in tubular epithelial cells (protein, UniProt O35683 1-70)
chain: B1 chain

Experiments:
Flag-FSP1 = biological target: T1, Flag-FSP1; assay: co-IP; HEK293T cells co-transfected with Flag-FSP1 and HA-NDUFA1; immunoprecipitation with anti-Flag M2 beads to pull down Flag-FSP1
[1] = biological target: T2, FSP1 in tubular epithelial cells; assay: proximity ligation; Duolink PLA in fixed, permeabilised tubular epithelial cells after 24 h of cisplatin treatment; primary antibodies 1:200 overnight at 4 °C, anti-rabbit PLUS and anti-mouse MINUS probes

Binder | binding (Flag-FSP1) | binding [1]
B1 | binds | 
B2 |  | binds
